Test results taken from PubChem BioAssay AID248 (DTP/NCI, 2004).
The list shows only some results of the screen, not a fair sample: it gathers tests that were run many times, whatever their T/C, doses with no T/C, and many T/C values between a quarter and a half above the control. Other doses and runs of a compound stand elsewhere. T/C: endpoint of the treated group in % of that of the vehicle group. Some entries give survivors of the animals treated and no T/C: the source files T/C as zero there, which appears to mark a toxic dose or a test without result, not a measured value. Some doses without a T/C left all or most animals alive at the check, yet need not have been tolerated: survival well below the control is almost never listed, so the zero probably covers shortened survival too. Counts of survivors are from the toxicity check (mostly the fifth day) where no day follows; animals may have died later. Schedules are NCI's codes, read here as Q, the interval in days (D) or hours (H), X, the number of doses. Where survival is the endpoint, the PubChem record calls one and a half times the control and up active, and a quarter to a half above the control has no call in these data; cut-offs in other NCI protocols can differ. Some T/C values are followed by the survivors on the day toxicity was checked, most often the fifth; where none is given, no animal had died by that day.

Test system: L1210 leukemia ip in BDF1 mice, survival T/C
Assay: NCI In Vivo Anticancer Drug Screen. Data for tumor model L1210 Leukemia (intraperitoneal) in B6D2F1 (BDF1) mice
Conditions: T/C endpoint: mean survival time, higher T/C = longer survival
[1] = dose: 150.0 mg/kg/injection, schedule: Q01DX001 (ip), vehicle: saline
[2] = dose: 300.0 mg/kg/injection, schedule: Q01DX001 (ip), vehicle: saline
[3] = dose: 50.0 mg/kg/injection, schedule: Q01DX009 (ip), vehicle: Klucel (hydroxypropylcellulose) (HPC)
[4] = dose: 100.0 mg/kg/injection, schedule: Q01DX009 (ip), vehicle: Klucel (hydroxypropylcellulose) (HPC)
[5] = dose: 200.0 mg/kg/injection, schedule: Q01DX009 (ip), vehicle: Klucel (hydroxypropylcellulose) (HPC)
[6] = dose: 400.0 mg/kg/injection, schedule: Q01DX001 (ip), vehicle: saline
[7] = dose: 400.0 mg/kg/injection, schedule: Q01DX009 (ip), vehicle: Klucel (hydroxypropylcellulose) (HPC)
[8] = dose: 200.0 mg/kg/injection, schedule: Q01DX001 (ip), vehicle: saline
[9] = dose: 400.0 mg/kg/injection, schedule: Q01DX009 (ip), vehicle: saline
[10] = dose: 100.0 mg/kg/injection, schedule: Q01DX001 (ip), vehicle: saline

Q: Which results are given for CC12CCC(C1)C(C)(C)C2[N+]#N (configuration not stated)?
A: survivor count [1]: 0 of 6; survivor count [2]: 0 of 6

Q: Which results are given for Cc1nc(C#N)c(N)o1?
A: survivor count (dose: 40.0 mg/kg/injection, schedule: Q01DX001 (ip), vehicle: saline): 0 of 6; survivor count (dose: 75.0 mg/kg/injection, schedule: Q01DX001 (ip), vehicle: saline): 0 of 6; survivor count (dose: 80.0 mg/kg/injection, schedule: Q01DX001 (ip), vehicle: saline): 0 of 6; survivor count [1]: 0 of 6; survivor count [2]: 0 of 6

Q: What does the source list for CC(C)Oc1ccc2c(c1)N(CCC1CCCCN1)c1ccccc1S2 (configuration not stated)?
A: survivor count [3]: 6 of 6; survivor count [4]: 0 of 6; survivor count [5]: 0 of 6

Q: What does the source list for OCC1OC(n2cnc3c(=S)nc[nH]c32)CC1O (configuration not stated)?
A: T/C (dose: 63.0 mg/kg/injection, schedule: Q01DX015 (ip), vehicle: saline): 125 % of control; T/C (dose: 108.0 mg/kg/injection, schedule: Q01DX015 (ip), vehicle: saline): 125 % of control; T/C [6]: 129 % of control; T/C (dose: 600.0 mg/kg/injection, schedule: Q01DX001 (ip), vehicle: saline): 131 % of control

Q: Cc1ccc(NC(=O)c2ccc(Cl)cc2)c(C)c1 was tested. Which survivor count [7] did it give?
A: The survivor count was 3 of 6.

Q: How did the survivor count [5] turn out when O=C(O)CNc1nc(Cl)nc(NCC(=O)O)n1 was run?
A: The survivor count was 3 of 3.

Q: Which survivor count (dose: 12.5 mg/kg/injection, schedule: Q01DX005 (ip), vehicle: saline) does the source give for OCC1OC(c2[nH]nc3c([Se])ncnc23)C(O)C1O (configuration not stated) here?
A: The survivor count was 5 of 6.

Q: What about the survivor count (dose: 25.0 mg/kg/injection, schedule: Q01DX005 (ip), vehicle: saline) of the same compound?
A: Its survivor count is 2 of 6.

Q: And the survivor count (dose: 25.0 mg/kg/injection, schedule: Q01DX009 (ip), vehicle: saline)?
A: The survivor count was 4 of 6.

Q: And the survivor count (dose: 50.0 mg/kg/injection, schedule: Q01DX005 (ip), vehicle: saline)?
A: Its survivor count is 0 of 6.

Q: What about the survivor count (dose: 50.0 mg/kg/injection, schedule: Q01DX009 (ip), vehicle: saline) of the same compound?
A: Its survivor count is 0 of 6.

Q: What does the source list for O=C(O)c1ccc2c3c(ccc(C(=O)O)c13)CC2?
A: survivor count [8]: 2 of 6; survivor count [6]: 3 of 6

Q: For CC(=O)OS(=O)(=O)c1ccc(C)cc1, which survivor count [9] is on record?
A: The survivor count was 6 of 6.

Q: Which survivor count [6] does the source give for C[N+]1(Cc2ccccc2)CCC(=O)CC1 here?
A: Its survivor count is 0 of 4.

Q: For c1ccc(NCCOc2ccccc2)cc1, which survivor count [7] is on record?
A: The survivor count was 1 of 3.

Q: How did the survivor count (dose: 200.0 mg/kg/injection, schedule: Q01DX009 (ip), vehicle: saline) turn out when CC(=C/C(C)(C)C)/C(C)=C/C(C)(C)C was run?
A: Its survivor count is 5 of 6.

Q: What about the survivor count [9] of the same compound?
A: The survivor count was 4 of 6.

Q: Which survivor count (dose: 200.0 mg/kg/injection, schedule: Q04DX003 (ip), vehicle: saline with Tween-80) does the source give for Cc1ccc([N+](=O)[O-])c(P(=O)(O)O)c1 here?
A: The survivor count was 3 of 6.

Q: And the survivor count (dose: 400.0 mg/kg/injection, schedule: Q04DX003 (ip), vehicle: saline with Tween-80)?
A: Its survivor count is 3 of 6.

Q: With c1ccc([P+](COC[P+](c2ccccc2)(c2ccccc2)c2ccccc2)(c2ccccc2)c2ccccc2)cc1 as the compound, how does the survivor count [3] read?
A: Its survivor count is 0 of 3.

Q: What about the survivor count [4] of the same compound?
A: The survivor count was 0 of 3.

Q: And the survivor count [5]?
A: The survivor count was 0 of 3.

Q: For O=CO.[Cu+2], which survivor count [10] is on record?
A: The survivor count was 0 of 6.

Q: And the survivor count [8]?
A: The survivor count was 0 of 6.

Q: What about the survivor count [6] of the same compound?
A: Its survivor count is 0 of 6.

Q: For O=[N+]([O-])CC(Nc1ccccc1)c1ccccc1 (configuration not stated), which T/C (dose: 400.0 mg/kg/injection, schedule: Q01DX001 (ip), vehicle: Klucel (hydroxypropylcellulose) (HPC)) is on record?
A: Its T/C is 126 % of control [5 of 6 alive].

Q: C=CCn1c2ccccc2c2cc3cnccc3c(C)c21 was tested. Which survivor count (dose: 100.0 mg/kg/injection, schedule: Q04DX003 (ip), vehicle: Klucel (hydroxypropylcellulose) (HPC)) did it give?
A: Its survivor count is 3 of 6.

Q: What about the survivor count (dose: 200.0 mg/kg/injection, schedule: Q04DX003 (ip), vehicle: Klucel (hydroxypropylcellulose) (HPC)) of the same compound?
A: The survivor count was 4 of 6.

Q: What about the survivor count (dose: 400.0 mg/kg/injection, schedule: Q04DX003 (ip), vehicle: Klucel (hydroxypropylcellulose) (HPC)) of the same compound?
A: The survivor count was 2 of 6.

Q: How did the survivor count [8] turn out when O=C(CCCC(=O)N/N=C/c1ccccc1O)N/N=C\c1ccccc1O was run?
A: The survivor count was 4 of 4.

Q: For Oc1ccc(Br)cc1/C=N/NC(=S)Nc1cccc2cccnc12, which survivor count [10] is on record?
A: The survivor count was 4 of 4.
